Measurements reported in PubChem BioAssay AID196 (DTP/NCI, 2004).
The list shows only some results of the screen, not a fair sample: it gathers tests that were run many times, whatever their T/C, doses with no T/C, and many T/C values between a quarter and a half above the control. Further doses and runs are listed elsewhere. T/C is the treated group as % of the vehicle group. Some doses have a count of surviving animals in place of a T/C: the source holds a T/C of zero for them, seemingly a mark for toxic or unscored doses. Some survivor counts are full or nearly so, which does not show that the dose was tolerated: the source hardly ever lists a survival T/C far under the control, and the zero likely stands for such cases as well. Survivors were counted at the toxicity check, usually on the fifth day, unless a day is given; later deaths do not show. Schedules are NCI's codes, taken here to give the interval after Q, in days (D) or hours (H), and the number of doses after X. Some entries hold several experiments; the values are given in rising order. Counts like (3×) say how often a value occurs here. For survival time, this PubChem deposit counts one and a half times the control or more as active, and values a quarter to a half above the control carry no call in these data; other NCI protocols may use other cut-offs. Some T/C values are followed by the survivors on the day toxicity was checked, most often the fifth; where none is given, no animal had died by that day.

Tested on: BDF1 mice, intracerebral B16 melanoma, median survival T/C
Test: NCI In Vivo Anticancer Drug Screen. Data for tumor model B16 Melanoma (intracerebral) in B6D2F1 (BDF1) mice
Settings: T/C endpoint: median survival time, higher T/C = longer survival
Protocol: The antitumor activity of compounds was measured in mice bearing transplantable tumors. Survival or tumor size were measured and the results are expressed as the measurement made in the treated group (T) divided by the measurement made in the vehicle treated control group (C). The tumor model used in this assay is B16 Melanoma (intracerebral) in B6D2F1 (BDF1) mice

[1] = dose: 32.0 mg/kg/injection, schedule: Q01DX005 (ip), vehicle: saline
[2] = dose: 16.0 mg/kg/injection, schedule: Q01DX009 (ip), vehicle: Klucel (hydroxypropylcellulose) (HPC)
[3] = dose: 50.0 mg/kg/injection, schedule: Q01DX009 (ip), vehicle: saline
[4] = dose: 100.0 mg/kg/injection, schedule: Q01DX009 (ip), vehicle: saline
[5] = dose: 256.0 mg/kg/injection, schedule: Q01DX005 (ip), vehicle: saline with Tween-80
[6] = dose: 128.0 mg/kg/injection, schedule: Q01DX005 (ip), vehicle: saline with Tween-80

In the case of `CCN(CC)c1ccc2cc3ccc(=[N+](CC)CC)cc-3oc2c1`, the survivor count (dose: 16.0 mg/kg/injection, schedule: Q01DX005 (ip), vehicle: saline) was 0 of 10, the survivor count (dose: 16.0 mg/kg/injection, schedule: Q01DX005 (ip), vehicle: suspension in saline) was 6 of 10 and the survivor count [1] was 0 of 10. For the same compound, the survivor count (dose: 32.0 mg/kg/injection, schedule: Q01DX005 (ip), vehicle: suspension in saline) was 0 of 10.

In the case of `NC(C/[N+]([O-])=N/O)C(=O)O` (stereo not drawn), the survivor count (dose: 28.12 mg/kg/injection, schedule: Q01DX009 (ip), vehicle: saline) was 10 of 10, the survivor count (dose: 50.0 mg/kg/injection, schedule: Q01DX009 (ip), vehicle: Klucel (hydroxypropylcellulose) (HPC)) was 10 of 10 and the survivor count (dose: 56.25 mg/kg/injection, schedule: Q01DX009 (ip), vehicle: saline) was 10 of 10. For the same compound, the survivor count (dose: 100.0 mg/kg/injection, schedule: Q01DX009 (ip), vehicle: Klucel (hydroxypropylcellulose) (HPC)) was 9 of 10 and 10 of 10 (2×), the survivor count (dose: 112.5 mg/kg/injection, schedule: Q01DX009 (ip), vehicle: saline) was 9 of 10 and the survivor count (dose: 200.0 mg/kg/injection, schedule: Q01DX009 (ip), vehicle: Klucel (hydroxypropylcellulose) (HPC)) was 6 of 10 and 9 of 10. For the same compound, the survivor count (dose: 225.0 mg/kg/injection, schedule: Q01DX009 (ip), vehicle: saline) was 10 of 10, the survivor count (dose: 400.0 mg/kg/injection, schedule: Q01DX009 (ip), vehicle: Klucel (hydroxypropylcellulose) (HPC)) was 2 of 10 (2×) and the survivor count (dose: 450.0 mg/kg/injection, schedule: Q01DX009 (ip), vehicle: saline) was 9 of 10. For the same compound, the survivor count (dose: 800.0 mg/kg/injection, schedule: Q01DX009 (ip), vehicle: Klucel (hydroxypropylcellulose) (HPC)) was 1 of 10 and 2 of 10 and the survivor count (dose: 900.0 mg/kg/injection, schedule: Q01DX009 (ip), vehicle: saline) was 10 of 10.

In the case of `CC(C)=CCC1=C(O)c2ccccc2C(=O)C1=O`, the survivor count (dose: 32.0 mg/kg/injection, schedule: Q01DX005 (ip), vehicle: Klucel (hydroxypropylcellulose) (HPC)) was 10 of 10.

With `O=NN(CCF)C(=O)NC1CCC(=O)NC1=O` (stereo not drawn) the survivor count (dose: 90.0 mg/kg/injection, schedule: Q01DX001 (ip), vehicle: Klucel (hydroxypropylcellulose) (HPC)) was 6 of 10 on day 6 and the survivor count (dose: 135.0 mg/kg/injection, schedule: Q01DX001 (ip), vehicle: Klucel (hydroxypropylcellulose) (HPC)) was 4 of 10 on day 6.

In the case of `COc1cc([C@@H]2c3cc4c(cc3[C@@H](OC3OC5CO[C@@H](c6cccs6)OC5C(O)C3O)[C@H]3COC(=O)[C@H]23)OCO4)cc(OC)c1O` (stereo partly drawn), the survivor count (dose: 4.0 mg/kg/injection, schedule: Q01DX009 (ip), vehicle: water) was 10 of 10 and the survivor count (dose: 8.0 mg/kg/injection, schedule: Q01DX009 (ip), vehicle: saline) was 9 of 10.

`Cc1c2ccncc2c(C)c2c1[nH]c1ccccc12` was tested, and the survivor count (dose: 20.0 mg/kg/injection, schedule: Q01DX009 (ip), vehicle: saline) was 9 of 10, the survivor count (dose: 40.0 mg/kg/injection, schedule: Q01DX009 (ip), vehicle: saline) was 10 of 10 and the survivor count (dose: 80.0 mg/kg/injection, schedule: Q01DX009 (ip), vehicle: saline) was 2 of 10.

`CC1CCC(NC(=O)N(CCCl)N=O)CC1` (stereo not drawn) was tested, and the survivor count (dose: 8.0 mg/kg/injection, schedule: Q01DX009 (ip), vehicle: Klucel (hydroxypropylcellulose) (HPC)) was 10 of 10, the survivor count [2] was 9 of 10 and the survivor count (dose: 18.0 mg/kg/injection, schedule: Q01DX001 (ip), vehicle: other) was 10 of 10. For the same compound, the T/C (dose: 30.0 mg/kg/injection, schedule: Q01DX001 (ip), vehicle: other) was 137 % of control.

`COc1cc(NS(C)(=O)=O)ccc1Nc1c2ccccc2nc2ccccc12` was tested, and the survivor count (dose: 10.0 mg/kg/injection, schedule: Q04DX003 (ip), vehicle: Klucel (hydroxypropylcellulose) (HPC)) was 6 of 6, the survivor count (dose: 20.0 mg/kg/injection, schedule: Q04DX003 (ip), vehicle: Klucel (hydroxypropylcellulose) (HPC)) was 6 of 6 and the T/C (dose: 20.0 mg/kg/injection, schedule: Q04DX003 (ip), vehicle: saline) was 125 % of control [5 of 6 alive].

In the case of `COc1cc(C[C@H]2c3cc(OC)c(OC)cc3CCN2C)c(Oc2cc3c(cc2OC)-c2c(OC)c(OC)cc4c2[C@H](C3)N(C)CC4)cc1OC`, the survivor count (dose: 100.0 mg/kg/injection, schedule: Q01DX005 (ip), vehicle: Klucel (hydroxypropylcellulose) (HPC)) was 3 of 10, the survivor count (dose: 200.0 mg/kg/injection, schedule: Q01DX005 (ip), vehicle: Klucel (hydroxypropylcellulose) (HPC)) was 1 of 10 and 6 of 10 and the survivor count (dose: 400.0 mg/kg/injection, schedule: Q01DX005 (ip), vehicle: Klucel (hydroxypropylcellulose) (HPC)) was 0 of 10 and 6 of 10.

With `CN(C)N=Nc1ccc2c(c1)N(C)c1ccc(Cl)cc1S2` the T/C (dose: 50.0 mg/kg/injection, schedule: Q01DX009 (ip), vehicle: other) was 125 % of control.

With `CN(C)/N=N/c1nc[nH]c1C(N)=O` the T/C [3] was 125 % of control [9 of 10 alive], the T/C [4] was 125 % of control and the survivor count (dose: 400.0 mg/kg/injection, schedule: Q01DX009 (ip), vehicle: saline with Tween-80) was 10 of 10.

For `CCC(C)N(C)/N=N/c1nc[nH]c1C(N)=O` (stereo not drawn), the survivor count [5] was 9 of 10.

`CCCCCCC(=O)O[C@H]1CC[C@H]2[C@@H]3CCC4=CC(=O)CC[C@]4(C)[C@H]3CC[C@]12C` was tested, and the survivor count (dose: 256.0 mg/kg/injection, schedule: Q01DX009 (ip), vehicle: Klucel (hydroxypropylcellulose) (HPC)) was 4 of 6.

In the case of `CCCCCN(C)/N=N/c1nc[nH]c1C(N)=O`, the T/C (dose: 16.0 mg/kg/injection, schedule: Q01DX005 (ip), vehicle: saline with Tween-80) was 132 % of control [9 of 10 alive], the T/C (dose: 64.0 mg/kg/injection, schedule: Q01DX005 (ip), vehicle: saline with Tween-80) was 140 % of control [9 of 10 alive] and the survivor count [6] was 10 of 10. The survivor count [5] was 9 of 10.

For `CN(N=O)C(N)=O`, the T/C (dose: 3.12 mg/kg/injection, schedule: Q01DX009 (ip), vehicle: saline) was 125 % of control, the T/C (dose: 12.5 mg/kg/injection, schedule: Q01DX009 (ip), vehicle: saline) was 135 % of control [9 of 10 alive] and the survivor count [3] was 10 of 10.

In the case of `CCCCN(C)N=Nc1ccc([N+](=O)[O-])cc1C(N)=O`, the T/C [6] was 132 % of control.

`C[C@]1(O)CC[C@H]2[C@@H]3CCC4=CC(=O)CC[C@]4(C)[C@@]3(F)[C@@H](O)C[C@@]21C` was tested, and the T/C [2] was 131 % of control, the T/C (dose: 32.0 mg/kg/injection, schedule: Q01DX009 (ip), vehicle: Klucel (hydroxypropylcellulose) (HPC)) was 125 % of control and the survivor count (dose: 512.0 mg/kg/injection, schedule: Q01DX009 (ip), vehicle: Klucel (hydroxypropylcellulose) (HPC)) was 0 of 6.

In the case of `COc1ccc(CC2C(=O)NC(C)C(=O)N(C)C3C(=O)N(C)C(Cc4ccc(O)c(c4)Oc4ccc(cc4)C3O)C(=O)NC(C)C(=O)NC(C)C(=O)N2C)cc1` (stereo not drawn), the survivor count (dose: 2.0 mg/kg/injection, schedule: Q01DX009 (ip), vehicle: Klucel (hydroxypropylcellulose) (HPC)) was 6 of 10 and the survivor count (dose: 4.0 mg/kg/injection, schedule: Q01DX009 (ip), vehicle: Klucel (hydroxypropylcellulose) (HPC)) was 10 of 10.

For `COc1cc(NS(C)(=O)=O)ccc1Nc1c2cccc(C)c2nc2c(C)cccc12`, the survivor count (dose: 100.0 mg/kg/injection, schedule: Q04DX003 (ip), vehicle: Klucel (hydroxypropylcellulose) (HPC)) was 6 of 6 and the survivor count (dose: 200.0 mg/kg/injection, schedule: Q04DX003 (ip), vehicle: Klucel (hydroxypropylcellulose) (HPC)) was 6 of 6.

`O=P1(N(CCCl)CCCl)NCCCO1` (stereo not drawn) was tested, and the T/C (dose: 50.0 mg/kg/injection, schedule: Q01DX009 (ip), vehicle: water) was 133 % of control and the survivor count [4] was 10 of 10.

In the case of `O=[N+]([O-])O.[Ga]`, the survivor count [1] was 10 of 10 and the survivor count (dose: 256.0 mg/kg/injection, schedule: Q01DX005 (ip), vehicle: saline) was 4 of 10 and 9 of 10.
